# Test results as given in PubChem BioAssay AID1347131 (National Center for Advancing Translational Sciences (NCATS), 2019).
# In all, about 410,000 compounds went through this assay and about 2,000 (0.49%) were called active. The inconclusive results got no clear call from the source; some entries with a clear call stand among them for comparison. The call rests on the fitted dose curve; tested in HEK293 reporter line. Potencies of inconclusive entries are doubtful fits and often do not repeat.
# Assay: qHTS Assay for Foot and Mouth Disease Virus Antivirals: Primary Screen against the MLPCN compound library; further: nearly all actives have a fitted effect of over 55% in size
# Details: FMDV antiviral cell-based qHTS; series mostly up to 57.9 µM
# Potency means the concentration at half of the fitted maximal effect.
row,SMILES,Potency
1,COc1ccc(-c2cc(C(F)(F)F)nc(N3CCN(C)CC3)n2)cc1OC,inactive
2,COc1cc(/C=C(\C#N)C(=O)NC2CCCCC2C)ccc1OS(=O)(=O)c1ccc(C)cc1 (configuration not stated),"inconclusive: 25.1 µM [inhibitor, partial curve, poor fit]"
3,O=C(Nc1cccc(NC(=O)c2cc([N+](=O)[O-])ccc2Cl)n1)c1cc([N+](=O)[O-])ccc1Cl,"inconclusive: 12.6 µM [inhibitor, partial curve, poor fit]"
4,CCNC(=O)C1CCCN(c2nn3cc(-c4ccc(C)cc4)nc3s2)C1 (configuration not stated),"inconclusive: 20 µM [inhibitor, partial curve, poor fit]"
5,COc1cccc(C2CC(c3ccc(C(C)C)cc3)n3nc(N)nc3N2)c1 (configuration not stated),"inconclusive: 25.1 µM [inhibitor, partial curve, poor fit]"
6,O=C(O)c1cccc(NC(=O)c2ccc3c(c2)C(=O)N(CC2CCCO2)C3=O)c1 (configuration not stated),"inconclusive: 15.8 µM [inhibitor, partial curve, poor fit]"
7,Cc1cc(Cl)ccc1OCC(=O)NCC(c1cccs1)N1CCOCC1 (configuration not stated),"inconclusive: 31.6 µM [inhibitor, partial curve, poor fit]"
8,O=C(CC1CCCCC1)Nc1ccccc1-c1ccccc1,"inconclusive: 1.12 µM [inhibitor, full curve]"
9,COc1ccccc1-c1noc2ncnc(Nc3cccc(C)c3)c12,"inconclusive: 12.6 µM [inhibitor, partial curve, poor fit]"
10,Cc1ccc(-n2ncc3c(NC4CCCCC4)ncnc32)cc1C,"inconclusive: 15.8 µM [inhibitor, partial curve]"
11,Cc1c(C(=O)NCCC2=CCCCC2)oc2ccc(S(=O)(=O)N3CCOCC3)cc12,"inconclusive: 14.1 µM [inhibitor, partial curve, poor fit]"
12,O=C1NC(=O)C(=Cc2ccc(Sc3ccccc3)o2)C(=O)N1,"inconclusive: 22.4 µM [inhibitor, partial curve, poor fit]"
13,Cc1cccc(NC(=O)CN2C(=O)C(c3ccc(F)cc3)=NC23CCCCCC3)c1C,"inconclusive: 39.8 µM [inhibitor, single point]"
14,Cc1ccc(NC(=O)c2ccc(S(=O)(=O)N(C)c3ccccc3)cc2)cc1S(=O)(=O)N1CCOCC1,"inconclusive: 12.6 µM [inhibitor, partial curve, poor fit]"
15,CN(C(=O)CCNC(=O)Cn1cnc2ccccc2c1=O)c1ccc(Br)cc1,"inconclusive: 4.47 µM [inhibitor, full curve]"
16,COC(=O)c1c(NC(=O)C2COc3ccccc3O2)sc2c1CCN(C(C)=O)C2 (configuration not stated),"inconclusive: 35.5 µM [inhibitor, single point]"
17,COc1cccc(C(=O)Nc2nnc(C(C)C)s2)c1,"inconclusive: 20 µM [inhibitor, single point]"
18,COc1ccc(C(=O)Nc2ccccc2C(=O)N/N=C/c2cccc3ccccc23)cc1,"inconclusive: 0.316 µM [inhibitor, full curve, poor fit]"
19,COc1ccc(NC(=O)c2cc3ccccc3o/c2=N\NS(=O)(=O)c2ccc(C)cc2)cc1,inactive

row,SMILES,Potency
1,Cc1ccc(C)c(OC2=NS(=O)(=O)c3ccccc32)c1,"inconclusive: 35.5 µM [inhibitor, single point]"
2,COc1ccc2oc(C(=O)Nc3nc4ccc(S(C)(=O)=O)cc4s3)c(C)c2c1,inactive
3,O=C(O)c1ccc(N/N=C/c2c(F)cccc2Cl)cc1,"inconclusive: 31.6 µM [inhibitor, partial curve, poor fit]"
4,CCc1ccn2cc(-c3cc(-c4ccccc4)no3)nc2c1,"inconclusive: 3.16 µM [inhibitor, partial curve, poor fit]"
5,O=C(COC(=O)c1ccccc1[N+](=O)[O-])c1ccc(C2CCCCC2)cc1,"inconclusive: 11.2 µM [inhibitor, partial curve, poor fit]"
6,Cn1c(/C=C/c2ccc(Cl)cc2Cl)c([N+](=O)[O-])c(=O)n(C)c1=O,"inconclusive: 31.6 µM [inhibitor, partial curve, poor fit]"
7,S=C(NCCc1ccccc1)Nc1ccc(Cl)cc1,"inconclusive: 8.91 µM [inhibitor, single point]"
8,O=C1c2ccccc2C(=O)N1CCCCN(C(=O)c1cc2ccccc2oc1=O)c1ccc(F)cc1F,"inconclusive: 31.6 µM [inhibitor, partial curve, poor fit]"
9,OC(CN1C2=NCCN2c2ccccc21)c1ccc(Br)cc1 (configuration not stated),"inconclusive: 17.8 µM [inhibitor, partial curve, poor fit]"
10,COc1cccc(CNc2ccc(S(=O)(=O)N3CCCC3)cn2)c1,"inconclusive: 2.51 µM [inhibitor, full curve]"
11,COC/C=C/C1=CC2=CC(=O)C(C)(OC(=O)c3cnc4ccccc4n3)C(=O)C2=CN1Cc1ccccc1 (configuration not stated),"inconclusive: 14.1 µM [inhibitor, partial curve, poor fit]"
12,Cc1ccc2c(c1)N(CC(=O)NCCC1=CCCCC1)C(=O)c1cccnc1O2,"inconclusive: 10 µM [inhibitor, partial curve, poor fit]"
13,CC(=O)N1CCCc2cc(S(=O)(=O)N3CCCC(C(=O)N4CCN(c5ccccc5F)CC4)C3)ccc21 (configuration not stated),"inconclusive: 15.8 µM [inhibitor, partial curve, poor fit]"
14,O=C(Cn1c(=S)[nH]c2ccccc2c1=O)N1CCN(c2ccc(F)cc2)CC1,"inconclusive: 25.1 µM [inhibitor, partial curve, poor fit]"
15,Cc1ccc(N(CC(=O)Nc2ccc3c(c2)OCCO3)S(=O)(=O)c2c(C)n[nH]c2C)cc1,"inconclusive: 25.1 µM [inhibitor, single point]"
16,CCc1nc2ccc(C(=O)N3CCN(C(=O)c4ccco4)CC3)cn2c1N(C)Cc1nccs1,"inconclusive: 2.51 µM [inhibitor, full curve]"
17,CCCc1c(-c2ccc(Cl)cc2)ncn1CCc1ccccc1OC,"inconclusive: 28.2 µM [inhibitor, partial curve, poor fit]"
18,CCCCNC(=O)c1cnn2c(C)c(Cc3c(C)cc(C)cc3C)c(C)nc12,"inconclusive: 15.8 µM [inhibitor, partial curve, poor fit]"
19,O=C1Nc2ccc(Br)cc2/C1=C/C(=O)c1ccccc1,inactive

# Some values from above:
# Potency, Cc1ccc2c(c1)N(CC(=O)NCCC1=CCCCC1)C(=O)c1cccnc1O2 reads inconclusive: 10 µM [inhibitor, partial curve, poor fit]
# Potency, Cc1cc(Cl)ccc1OCC(=O)NCC(c1cccs1)N1CCOCC1 (configuration not stated) reads inconclusive: 31.6 µM [inhibitor, partial curve, poor fit]

# Further compounds.

row,SMILES,Potency
1,COc1ccc(OC)c(-c2cc(C(=O)N/N=C/c3cc(OC)c(OC)cc3OC)c3ccccc3n2)c1,"inconclusive: 5.62 µM [inhibitor, partial curve]"
2,O=C(CSc1nnc(NC(=O)c2ccc3c(c2)OCO3)s1)NCc1ccco1,active: 17.8 µM
3,CC(=O)Oc1cc2c(c(C)c1OC(C)=O)CC=C1[C@]3(C)CC[C@]4(C)CC[C@@](C)(C(=O)O)CC4[C@]3(C)CC[C@]12C (some centres not stated),"inconclusive: 35.5 µM [inhibitor, partial curve, poor fit]"
4,COc1ccc(CN(C)Cc2nc(Cc3cccc(F)c3)no2)c2cccnc12,"inconclusive: 10 µM [inhibitor, partial curve, poor fit]"
5,CCOC(=O)Nc1ccc2c(c1)N(C(=O)CN(C)C)c1ccccc1CC2,"inconclusive: 2 µM [inhibitor, partial curve, poor fit]"
6,Cc1cc(Nc2ccc3c(c2)OCCO3)c2cc(Cl)ccc2n1,"inconclusive: 39.8 µM [inhibitor, partial curve, poor fit]"
7,CN(C)c1ccc(-c2nc3ccccc3c(=O)[nH]2)cc1,active: 20 µM
8,CCOC(=O)CSC1=C(C#N)C(c2ccc(C)o2)CC(=O)N1 (configuration not stated),"inconclusive: 2 µM [inhibitor, partial curve, poor fit]"
9,O=C(Nc1cc2ccccc2oc1=O)c1ccccc1,"inconclusive: 10 µM [inhibitor, partial curve, poor fit]"
10,COc1cccc(Nc2nnc(SCc3cc([N+](=O)[O-])cc4c3OCOC4)s2)c1,"inconclusive: 15.8 µM [inhibitor, partial curve, poor fit]"
11,CCC(Oc1ccc(C)cc1)C(=O)Nc1ccccc1C(=O)N1CCOCC1 (configuration not stated),"inconclusive: 12.6 µM [inhibitor, partial curve, poor fit]"
12,Cc1ccc(C)c(N2CCN(C(=O)C3CCCN(S(=O)(=O)c4ccc5c(c4)oc(=O)n5C)C3)CC2)c1 (configuration not stated),"inconclusive: 15.8 µM [inhibitor, partial curve, poor fit]"
13,COc1ccc(S(=O)(=O)Nc2ccc3c(c2)N(C(C)=O)CCC3)cc1F,"inconclusive: 10 µM [inhibitor, partial curve, poor fit]"
14,CC(=O)N1Cc2ccccc2C(C)CC12CCCC2 (configuration not stated),"inconclusive: 25.1 µM [inhibitor, partial curve, poor fit]"
15,CN1C=C/C(=C\c2cc[n+](C)c3ccccc23)c2ccccc21,"inconclusive: 17.8 µM [inhibitor, partial curve, poor fit]"
16,N#CCSc1nnc(COc2ccccc2)n1-c1ccccc1,"inconclusive: 20 µM [inhibitor, single point]"
17,COc1ccc(CNC(=O)COC(=O)c2c(C)nn(-c3ccccc3)c2C)cc1OC,"inconclusive: 39.8 µM [inhibitor, partial curve, poor fit]"
18,O=C(N/N=C/c1ccccc1)c1ccc2c(c1)OCO2,"inconclusive: 7.94 µM [inhibitor, full curve]"
19,O=C(O)c1ccc(N/N=C/c2cc(Br)cs2)cc1,active: 11.2 µM
